In the supplement of paper PMC10849652:
The list shows a part of the results.

Protein sequences, listed by entry. Tags and fused reporters are not part of them. Lines headed by an entry give the natural chain unless they say otherwise; changes in a name come on top.
UniProt Q9NZJ0: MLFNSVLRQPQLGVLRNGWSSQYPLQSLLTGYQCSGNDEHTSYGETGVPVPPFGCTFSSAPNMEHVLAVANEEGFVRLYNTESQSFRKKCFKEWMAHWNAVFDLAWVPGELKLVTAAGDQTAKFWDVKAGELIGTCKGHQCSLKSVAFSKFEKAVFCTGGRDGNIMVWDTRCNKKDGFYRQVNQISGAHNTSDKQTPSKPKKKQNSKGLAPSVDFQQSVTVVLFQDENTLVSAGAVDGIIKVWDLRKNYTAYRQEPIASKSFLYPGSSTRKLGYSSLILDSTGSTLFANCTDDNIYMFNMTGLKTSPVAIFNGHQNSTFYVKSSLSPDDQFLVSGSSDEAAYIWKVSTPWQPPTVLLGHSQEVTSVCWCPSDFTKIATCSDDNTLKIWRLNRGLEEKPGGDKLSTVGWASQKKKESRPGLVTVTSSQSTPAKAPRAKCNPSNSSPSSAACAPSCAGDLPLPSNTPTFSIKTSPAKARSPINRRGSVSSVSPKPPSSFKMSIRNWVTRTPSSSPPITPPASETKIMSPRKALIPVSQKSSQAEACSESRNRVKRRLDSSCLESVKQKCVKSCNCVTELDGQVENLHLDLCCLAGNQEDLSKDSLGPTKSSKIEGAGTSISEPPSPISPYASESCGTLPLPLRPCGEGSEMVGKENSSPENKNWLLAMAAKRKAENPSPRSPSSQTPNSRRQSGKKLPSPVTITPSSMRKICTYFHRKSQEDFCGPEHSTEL
UniProt Q9P2X0: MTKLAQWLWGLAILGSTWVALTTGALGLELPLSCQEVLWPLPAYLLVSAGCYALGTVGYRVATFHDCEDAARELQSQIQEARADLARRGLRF
UniProt Q96DA6: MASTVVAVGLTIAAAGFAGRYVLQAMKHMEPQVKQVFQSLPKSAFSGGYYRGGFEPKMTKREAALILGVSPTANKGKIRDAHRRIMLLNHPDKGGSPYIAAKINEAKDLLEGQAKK
UniProt Q5VYK3, whole entry, looked up: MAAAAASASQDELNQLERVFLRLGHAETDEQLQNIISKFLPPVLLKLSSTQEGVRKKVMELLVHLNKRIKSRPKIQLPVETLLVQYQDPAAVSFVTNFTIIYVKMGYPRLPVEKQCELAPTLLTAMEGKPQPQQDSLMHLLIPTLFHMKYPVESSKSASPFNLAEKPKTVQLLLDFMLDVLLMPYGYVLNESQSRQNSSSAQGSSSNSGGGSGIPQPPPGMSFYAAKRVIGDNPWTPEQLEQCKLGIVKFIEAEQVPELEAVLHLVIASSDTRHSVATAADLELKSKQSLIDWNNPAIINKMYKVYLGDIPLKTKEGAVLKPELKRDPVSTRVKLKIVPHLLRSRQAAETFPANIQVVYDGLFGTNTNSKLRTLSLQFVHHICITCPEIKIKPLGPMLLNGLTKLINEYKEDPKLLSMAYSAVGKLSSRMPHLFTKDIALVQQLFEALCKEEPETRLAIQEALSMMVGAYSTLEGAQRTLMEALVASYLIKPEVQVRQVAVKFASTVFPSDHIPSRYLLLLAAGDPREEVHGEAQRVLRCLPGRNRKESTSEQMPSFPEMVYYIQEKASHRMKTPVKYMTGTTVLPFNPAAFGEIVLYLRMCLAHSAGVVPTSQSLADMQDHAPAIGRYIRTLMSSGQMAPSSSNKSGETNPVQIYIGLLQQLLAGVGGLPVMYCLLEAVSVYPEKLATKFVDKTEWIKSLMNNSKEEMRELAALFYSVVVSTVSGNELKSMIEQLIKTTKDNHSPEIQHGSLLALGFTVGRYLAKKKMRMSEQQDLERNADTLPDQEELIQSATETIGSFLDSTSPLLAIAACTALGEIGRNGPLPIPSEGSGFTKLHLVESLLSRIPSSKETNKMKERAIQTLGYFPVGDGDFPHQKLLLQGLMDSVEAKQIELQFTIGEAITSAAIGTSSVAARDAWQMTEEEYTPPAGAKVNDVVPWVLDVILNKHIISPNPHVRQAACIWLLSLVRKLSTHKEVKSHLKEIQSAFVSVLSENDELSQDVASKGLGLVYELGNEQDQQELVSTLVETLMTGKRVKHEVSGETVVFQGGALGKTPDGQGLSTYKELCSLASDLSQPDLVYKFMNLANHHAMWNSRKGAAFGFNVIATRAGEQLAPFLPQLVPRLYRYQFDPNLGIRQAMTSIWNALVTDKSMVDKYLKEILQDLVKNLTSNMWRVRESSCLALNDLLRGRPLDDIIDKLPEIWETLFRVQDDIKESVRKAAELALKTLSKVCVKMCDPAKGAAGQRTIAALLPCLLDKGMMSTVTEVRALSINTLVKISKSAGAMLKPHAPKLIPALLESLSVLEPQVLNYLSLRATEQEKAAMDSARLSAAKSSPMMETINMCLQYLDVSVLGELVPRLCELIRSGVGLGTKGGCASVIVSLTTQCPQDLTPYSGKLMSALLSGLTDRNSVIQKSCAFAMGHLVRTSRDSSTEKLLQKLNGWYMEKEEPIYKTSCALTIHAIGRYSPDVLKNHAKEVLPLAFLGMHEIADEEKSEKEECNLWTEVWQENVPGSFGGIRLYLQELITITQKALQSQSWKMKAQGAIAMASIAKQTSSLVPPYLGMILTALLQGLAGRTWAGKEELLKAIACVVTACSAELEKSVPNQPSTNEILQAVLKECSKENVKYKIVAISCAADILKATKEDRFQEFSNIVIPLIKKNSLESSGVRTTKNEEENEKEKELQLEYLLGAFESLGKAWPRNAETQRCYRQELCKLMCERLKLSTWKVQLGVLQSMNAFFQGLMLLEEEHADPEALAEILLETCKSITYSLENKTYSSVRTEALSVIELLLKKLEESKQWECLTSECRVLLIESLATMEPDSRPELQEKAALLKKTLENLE
UniProt Q9NVH1: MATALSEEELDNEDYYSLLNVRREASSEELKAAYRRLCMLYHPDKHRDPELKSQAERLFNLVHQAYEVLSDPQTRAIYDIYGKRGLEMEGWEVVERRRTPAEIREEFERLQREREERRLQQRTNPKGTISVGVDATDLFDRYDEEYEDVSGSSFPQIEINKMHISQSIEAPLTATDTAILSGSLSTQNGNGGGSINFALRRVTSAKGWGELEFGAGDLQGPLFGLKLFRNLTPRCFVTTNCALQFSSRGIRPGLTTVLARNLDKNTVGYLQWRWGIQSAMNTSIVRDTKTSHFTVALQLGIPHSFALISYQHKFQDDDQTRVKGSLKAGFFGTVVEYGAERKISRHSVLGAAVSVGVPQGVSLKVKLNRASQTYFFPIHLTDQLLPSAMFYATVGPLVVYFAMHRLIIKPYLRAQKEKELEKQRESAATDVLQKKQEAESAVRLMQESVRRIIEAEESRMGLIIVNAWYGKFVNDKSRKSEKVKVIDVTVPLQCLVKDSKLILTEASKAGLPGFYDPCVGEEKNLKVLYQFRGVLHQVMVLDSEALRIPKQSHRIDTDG
UniProt Q6V1X1: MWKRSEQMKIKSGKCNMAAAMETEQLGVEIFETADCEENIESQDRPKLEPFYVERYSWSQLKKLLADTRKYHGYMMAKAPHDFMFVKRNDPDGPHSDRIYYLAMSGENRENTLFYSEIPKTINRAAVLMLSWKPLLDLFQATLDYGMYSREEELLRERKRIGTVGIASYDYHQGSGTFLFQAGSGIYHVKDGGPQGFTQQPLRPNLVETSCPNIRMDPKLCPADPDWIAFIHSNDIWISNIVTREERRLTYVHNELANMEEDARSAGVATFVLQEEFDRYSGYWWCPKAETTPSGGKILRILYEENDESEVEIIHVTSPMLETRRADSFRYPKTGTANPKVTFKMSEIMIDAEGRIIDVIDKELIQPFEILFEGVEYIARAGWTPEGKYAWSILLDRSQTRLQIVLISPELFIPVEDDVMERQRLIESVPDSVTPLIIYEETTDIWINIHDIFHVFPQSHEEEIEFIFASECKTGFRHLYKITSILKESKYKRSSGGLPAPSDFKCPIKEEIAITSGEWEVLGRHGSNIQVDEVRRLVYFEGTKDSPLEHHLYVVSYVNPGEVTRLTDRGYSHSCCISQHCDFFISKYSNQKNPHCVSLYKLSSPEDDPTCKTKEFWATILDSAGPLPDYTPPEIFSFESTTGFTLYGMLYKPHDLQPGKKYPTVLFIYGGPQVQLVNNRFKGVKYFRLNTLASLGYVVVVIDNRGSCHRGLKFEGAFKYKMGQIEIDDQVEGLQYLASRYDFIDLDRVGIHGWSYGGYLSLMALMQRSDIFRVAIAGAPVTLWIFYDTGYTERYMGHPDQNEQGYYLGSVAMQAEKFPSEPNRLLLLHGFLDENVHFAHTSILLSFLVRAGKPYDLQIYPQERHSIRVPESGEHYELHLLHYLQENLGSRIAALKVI
UniProt O43598: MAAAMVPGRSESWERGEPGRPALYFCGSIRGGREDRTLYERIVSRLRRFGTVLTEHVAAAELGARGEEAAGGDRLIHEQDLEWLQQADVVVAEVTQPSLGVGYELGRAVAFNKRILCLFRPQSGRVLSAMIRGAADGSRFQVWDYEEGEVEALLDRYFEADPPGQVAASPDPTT
UniProt P25685, whole entry, looked up: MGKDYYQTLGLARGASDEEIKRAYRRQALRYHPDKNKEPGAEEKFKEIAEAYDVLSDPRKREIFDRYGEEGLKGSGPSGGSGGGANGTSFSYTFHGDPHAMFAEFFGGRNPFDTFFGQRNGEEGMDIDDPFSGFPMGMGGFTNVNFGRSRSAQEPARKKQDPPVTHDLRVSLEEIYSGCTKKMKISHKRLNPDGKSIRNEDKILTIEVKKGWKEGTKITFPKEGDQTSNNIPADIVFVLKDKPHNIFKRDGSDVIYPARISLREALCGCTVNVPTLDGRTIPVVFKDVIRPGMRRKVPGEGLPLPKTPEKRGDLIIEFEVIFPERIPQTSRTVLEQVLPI
UniProt O00429, whole entry, looked up: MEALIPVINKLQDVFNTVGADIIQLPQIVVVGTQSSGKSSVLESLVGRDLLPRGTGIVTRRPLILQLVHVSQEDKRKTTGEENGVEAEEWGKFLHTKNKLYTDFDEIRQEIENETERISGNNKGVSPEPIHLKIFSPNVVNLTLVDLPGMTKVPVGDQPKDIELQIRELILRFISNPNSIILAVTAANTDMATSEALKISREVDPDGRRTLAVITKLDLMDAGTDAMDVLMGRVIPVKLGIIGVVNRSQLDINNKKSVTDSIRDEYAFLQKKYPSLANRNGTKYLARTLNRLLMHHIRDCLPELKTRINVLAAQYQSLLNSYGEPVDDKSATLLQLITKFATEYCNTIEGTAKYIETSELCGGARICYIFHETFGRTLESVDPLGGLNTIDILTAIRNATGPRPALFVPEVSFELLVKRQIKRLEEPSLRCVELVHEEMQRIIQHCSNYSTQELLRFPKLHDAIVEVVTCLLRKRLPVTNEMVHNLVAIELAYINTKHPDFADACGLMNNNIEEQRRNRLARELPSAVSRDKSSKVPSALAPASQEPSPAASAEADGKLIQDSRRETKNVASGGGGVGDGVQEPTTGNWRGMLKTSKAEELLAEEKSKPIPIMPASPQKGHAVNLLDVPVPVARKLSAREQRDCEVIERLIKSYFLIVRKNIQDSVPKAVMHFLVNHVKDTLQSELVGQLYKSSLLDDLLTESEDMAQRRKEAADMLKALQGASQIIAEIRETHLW
UniProt Q5JPH6: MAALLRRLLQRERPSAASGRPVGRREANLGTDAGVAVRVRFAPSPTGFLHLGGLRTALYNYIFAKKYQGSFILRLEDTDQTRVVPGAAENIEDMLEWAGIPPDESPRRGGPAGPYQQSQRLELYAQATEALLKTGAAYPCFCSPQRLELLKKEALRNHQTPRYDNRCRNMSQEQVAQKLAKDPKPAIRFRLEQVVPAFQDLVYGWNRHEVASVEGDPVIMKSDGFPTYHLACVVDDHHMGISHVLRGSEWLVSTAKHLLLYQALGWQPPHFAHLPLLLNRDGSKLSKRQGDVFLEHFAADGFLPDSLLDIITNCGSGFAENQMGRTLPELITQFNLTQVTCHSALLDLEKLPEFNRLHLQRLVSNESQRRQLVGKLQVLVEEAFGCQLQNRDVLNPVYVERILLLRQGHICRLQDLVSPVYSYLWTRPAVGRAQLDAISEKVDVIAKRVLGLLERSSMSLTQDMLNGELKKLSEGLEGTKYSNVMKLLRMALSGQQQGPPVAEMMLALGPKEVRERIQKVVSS
UniProt Q5SXM8: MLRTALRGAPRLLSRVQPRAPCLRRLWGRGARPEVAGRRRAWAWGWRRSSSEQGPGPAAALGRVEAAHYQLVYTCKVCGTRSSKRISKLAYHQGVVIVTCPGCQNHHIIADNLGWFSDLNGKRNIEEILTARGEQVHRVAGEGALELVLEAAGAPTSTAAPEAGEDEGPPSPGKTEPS
UniProt Q9NVM6: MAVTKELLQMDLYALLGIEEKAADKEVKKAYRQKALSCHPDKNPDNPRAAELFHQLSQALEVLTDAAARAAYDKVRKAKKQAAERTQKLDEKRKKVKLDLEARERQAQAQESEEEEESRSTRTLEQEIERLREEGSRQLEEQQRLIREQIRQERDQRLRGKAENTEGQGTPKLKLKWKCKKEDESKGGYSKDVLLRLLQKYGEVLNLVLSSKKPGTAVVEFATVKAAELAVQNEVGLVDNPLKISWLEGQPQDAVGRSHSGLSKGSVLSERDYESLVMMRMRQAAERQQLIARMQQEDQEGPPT

Tests used:
Assay in all cases: log2 fold change, soluble protein after heating vs DMSO (PISA); higher = thermal stabilisation; K562 cells, 10 uM, 30 min; active = over 0.2 and 3.5 SD of the protein, either way, in both replicates (recomputed)
[1] = compound: C#Cc1cccc(Nc2ncnc3cc(OCCOC)c(OCCOC)cc23)c1 [erlotinib]
How it was run: (§1)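 Soluble protein was defined as the supernatant after 21,000xg for 90 min. It came from K562 cells at 2×10^6 cells/mL given 10 μM compound for 30 min, heated in aliquots for 3 min across 48°C-58°C, pooled, and extracted in PBS with 0.5% NP-40 at 4°C, and was quantified by TMTpro 16plex LC-MS/MS with equalised channel sums. Thermal stability against control samples, from duplicates, is reported as log2 fold change.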

[2] = compound: C/C(=N\NC(=O)C1=CC(=CC=C1)S(=O)(=O)N2CCOCC2)/C3=C(C=CC(=C3)Cl)O
How it was run: as §1

[3] = compound: C1=CC(=C(C=C1Cl)C2=NC3=NC=CN=C3C(=N2)NC4=CC=NC=C4)F
How it was run: as §1

[4] = compound: C1=CC(=CC=C1C2=NC3=C(N2)C=C(C=C3)C(=O)N)OC4=CC=C(C=C4)Cl
How it was run: as §1

[5] = compound: C1=CC2=C(C=CC(=C2)/C=C\3/C(=O)NC(=NCC4=CC=CS4)S3)N=C1
How it was run: as §1

[6] = compound: C1=CC2=NC=CN=C2C=C1/C=C/3\C(=O)NC(=O)S3
How it was run: as §1

[7] = compound: C1=CC=C(C=C1)C2=NC(=C(N2)C3=CC=NC=C3)C4=CC(=C(C=C4)Cl)O
How it was run: as §1

[8] = compound: C1=CC=C2C(=C1)C3=NNC4=CC=CC(=C43)C2=O
How it was run: as §1

[9] = compound: C1CCN(C1)C(=O)NC2=CC=CC(=C2)NC3=NC=C(C(=N3)NCCC4=CN=CN4)Br
How it was run: as §1

[10] = compound: C1CN(CCC1(CC2=CC=C(C=C2)Cl)N)C3=NC=NC4=C3C=CN4
How it was run: as §1

Measured: log2 fold change

DNAJC6 isoform 2 (UniProt O75061)
inactive: [1] -0.008 | [2] 0.055 | [3] 0.041 | [4] -0.011 | [5] 0.037 | [6] 0.114 | [7] -0.022 | [8] -0.007 | [9] -0.052 | [10] -0.005

DTL (UniProt Q9NZJ0)
inactive: [1] -0.098 | [2] 0.061 | [3] 0.033 | [4] -0.044 | [5] 0.101 | [6] 0.124 | [7] -0.048 | [8] -0.149 | [9] -0.044 | [10] 0.017

DOCK7 (UniProt Q96N67)
inactive: [1] 0.013 | [2] -0.004 | [3] 0.069 | [4] 0.125 | [5] 0.006 | [6] 0.012 | [7] -0.047 | [8] 0.074 | [9] 0 | [10] 0.05

DPM3 isoform 2 (UniProt Q9P2X0)
inactive: [1] 0.041 | [2] 0.132 | [3] 0.13 | [4] -0.009 | [5] -0.003 | [6] 0.037 | [7] 0.005 | [8] 0.034 | [9] -0.003 | [10] 0.006

DNAJC21 isoform 3 (UniProt Q5F1R6)
inactive: [1] -0.025 | [2] 0.058 | [3] -0.215 | [4] 0.021 | [5] -0.027 | [6] -0.012 | [7] -0.033 | [8] -0.019 | [9] -0.07 | [10] -0.23

DNAJC7 (UniProt Q99615)
inactive: [1] 0.02 | [2] 0.065 | [3] 0.061 | [4] -0.002 | [5] 0.014 | [6] 0.024 | [7] 0.013 | [8] 0.023 | [9] 0.005 | [10] -0.043

DNAJC19 (UniProt Q96DA6)
inactive: [1] -0.009 | [2] 0.014 | [3] 0.055 | [4] 0.001 | [5] -0.005 | [6] 0.04 | [7] 0.052 | [8] -0.022 | [9] -0.012 | [10] 0.016

Retrieved one by one from the list above (2):
DNAJC21 isoform 3 (UniProt Q5F1R6)
inactive: [1] -0.025 | [2] 0.058 | [3] -0.215 | [4] 0.021 | [5] -0.027 | [6] -0.012 | [7] -0.033 | [8] -0.019 | [9] -0.07 | [10] -0.23

DOCK7 (UniProt Q96N67)
inactive: [1] 0.013 | [2] -0.004 | [3] 0.069 | [4] 0.125 | [5] 0.006 | [6] 0.012 | [7] -0.047 | [8] 0.074 | [9] 0 | [10] 0.05

More records follow.

DYSF isoform 13 (UniProt O75923)
inactive: [1] -0.1 | [2] -0.057 | [3] -0.201 | [4] 0.1 | [5] 0.036 | [6] -0.099 | [7] 0.015 | [8] -0.029 | [9] -0.197 | [10] 0.21

DUSP23 (UniProt Q9BVJ7)
inactive: [1] -0.015 | [2] 0.064 | [3] 0.104 | [4] 0.001 | [5] 0.062 | [6] 0.031 | [7] 0.047 | [8] -0.049 | [9] -0.124 | [10] 0

DOCK11 (UniProt Q5JSL3)
inactive: [1] 0.012 | [2] 0.079 | [3] -0.026 | [4] -0.017 | [5] 0.034 | [6] 0.022 | [7] -0.039 | [8] -0.039 | [9] -0.012 | [10] -0.111

DNASE2 (UniProt O00115)
inactive: [1] -0.013 | [2] 0.008 | [3] 0.068 | [4] 0.005 | [5] 0.002 | [6] 0.048 | [7] -0.053 | [8] -0.015 | [9] -0.013 | [10] 0.075

DYNC1LI2 (UniProt O43237)
inactive: [1] 0.035 | [2] -0.147 | [3] -0.257 | [4] -0.012 | [5] -0.04 | [6] -0.073 | [7] -0.061 | [8] 0.049 | [9] 0.035 | [10] -0.052

EBNA1BP2 (UniProt Q99848)
inactive: [1] -0.041 | [2] -0.149 | [3] -0.466 | [4] 0.034 | [5] 0.042 | [6] 0.052 | [7] -0.047 | [8] -0.134 | [9] 0.048 | [10] -0.414

ECPAS (UniProt Q5VYK3)
inactive: [1] 0.058 | [2] 0.087 | [3] 0.001 | [4] -0.06 | [5] 0.042 | [6] 0.009 | [7] 0.048 | [8] -0.01 | [9] -0.028 | [10] -0.018

DNMT1 isoform 2 (UniProt P26358)
inactive: [1] -0.007 | [2] 0.038 | [3] 0.009 | [4] -0.011 | [5] 0.009 | [6] 0.014 | [7] 0.038 | [8] 0 | [9] -0.041 | [10] -0.026

DNAJC11 (UniProt Q9NVH1)
inactive: [1] -0.03 | [2] 0.011 | [3] 0.045 | [4] -0.001 | [5] 0.007 | [6] 0.015 | [7] -0.033 | [8] 0.018 | [9] -0.026 | [10] 0.009

DTNBP1 (UniProt Q96EV8)
inactive: [1] 0.016 | [2] 0.028 | [3] 0.038 | [4] 0.03 | [5] 0.028 | [6] -0.038 | [7] -0.043 | [8] -0.043 | [9] -0.009 | [10] 0.002

ECE1 (UniProt P42892)
inactive: [1] -0.055 | [2] 0.171 | [3] -0.043 | [4] 0.107 | [5] -0.022 | [6] -0.057 | [7] -0.051 | [8] -0.056 | [9] -0.017 | [10] 0.109

DPP8 (UniProt Q6V1X1)
inactive: [1] 0.093 | [2] 0.088 | [3] 0.067 | [4] 0 | [5] 0.134 | [6] 0.018 | [7] -0.067 | [8] -0.011 | [9] -0.003 | [10] 0.008

DPP7 (UniProt Q9UHL4)
inactive: [1] 0.026 | [2] 0.026 | [3] 0.023 | [4] 0.027 | [5] -0.026 | [6] -0.008 | [7] 0.052 | [8] 0.02 | [9] -0.023 | [10] 0.039

DNPH1 (UniProt O43598)
inactive: [1] -0.036 | [2] 0.073 | [3] 0.034 | [4] 0.022 | [5] -0.044 | [6] -0.012 | [7] 0.05 | [8] -0.058 | [9] -0.072 | [10] 0.019

DNAJB1 (UniProt P25685)
inactive: [1] 0.005 | [2] 0.017 | [3] 0.012 | [4] 0.008 | [5] 0.024 | [6] 0.053 | [7] 0.024 | [8] -0.025 | [9] -0.019 | [10] 0.009

DNM1L isoform 6 (UniProt O00429)
inactive: [1] 0.058 | [2] 0.008 | [3] 0.103 | [4] -0.006 | [5] 0.082 | [6] 0.01 | [7] 0.049 | [8] 0.006 | [9] 0.004 | [10] 0.036

EARS2 isoform 2 (UniProt Q5JPH6)
inactive: [1] 0.053 | [2] 0.104 | [3] 0.052 | [4] -0.065 | [5] 0.071 | [6] 0.111 | [7] 0.064 | [8] -0.023 | [9] -0.076 | [10] 0.032

DSC2 (UniProt Q02487)
inactive: [1] -0.128 | [2] -0.039 | [3] 0.036 | [4] 0.092 | [5] 0.081 | [6] -0.047 | [7] -0.069 | [8] -0.073 | [9] 0.054 | [10] -0.039

DPP3 (UniProt Q9NY33)
inactive: [1] 0.031 | [2] 0.04 | [3] 0.078 | [4] 0.036 | [5] 0.008 | [6] 0.004 | [7] 0.033 | [8] 0.018 | [9] 0 | [10] 0.024

DYNC1LI1 (UniProt Q9Y6G9)
inactive: [1] -0.047 | [2] 0.013 | [3] 0.009 | [4] 0.032 | [5] 0.02 | [6] 0.023 | [7] 0.026 | [8] 0.021 | [9] 0.042 | [10] -0.049

DNLZ (UniProt Q5SXM8)
inactive: [1] 0.032 | [2] 0.011 | [3] -0.019 | [4] -0.109 | [5] 0.015 | [6] 0.025 | [7] -0.067 | [8] -0.013 | [9] 0.054 | [10] 0.051

DNAJC17 (UniProt Q9NVM6)
inactive: [1] 0.025 | [2] 0.014 | [3] 0.047 | [4] -0.018 | [5] 0.003 | [6] 0.038 | [7] -0.028 | [8] 0.054 | [9] -0.037 | [10] -0.008

DNAJB14 (UniProt Q8TBM8)
inactive: [1] 0.243 | [2] 0.116 | [3] -0.001 | [4] -0.061 | [5] -0.019 | [6] -0.023 | [7] 0.035 | [8] 0 | [9] -0.102 | [10] 0.06
